These results are taken from article doi:10.1101/2021.01.27.428547.

Amino acid sequences for entries named in this document (tags omitted). A change or cut given only in a name is not applied to a line headed by its entry.
UniProt Q4F883: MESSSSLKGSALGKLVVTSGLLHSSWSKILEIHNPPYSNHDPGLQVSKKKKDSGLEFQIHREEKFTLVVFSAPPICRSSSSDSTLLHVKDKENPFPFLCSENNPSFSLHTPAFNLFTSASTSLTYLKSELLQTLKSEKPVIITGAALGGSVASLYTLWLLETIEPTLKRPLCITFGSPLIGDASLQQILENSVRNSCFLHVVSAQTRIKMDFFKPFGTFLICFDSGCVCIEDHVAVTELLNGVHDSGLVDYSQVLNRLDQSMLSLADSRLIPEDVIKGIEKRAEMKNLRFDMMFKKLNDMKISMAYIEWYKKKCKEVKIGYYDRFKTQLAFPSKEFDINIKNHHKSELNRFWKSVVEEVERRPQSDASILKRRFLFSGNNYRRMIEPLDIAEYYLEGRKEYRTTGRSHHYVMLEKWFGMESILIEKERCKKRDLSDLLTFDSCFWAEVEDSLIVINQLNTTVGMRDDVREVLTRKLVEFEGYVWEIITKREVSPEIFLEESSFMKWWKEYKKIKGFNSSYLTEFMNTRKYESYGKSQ
UniProt Q9SU72: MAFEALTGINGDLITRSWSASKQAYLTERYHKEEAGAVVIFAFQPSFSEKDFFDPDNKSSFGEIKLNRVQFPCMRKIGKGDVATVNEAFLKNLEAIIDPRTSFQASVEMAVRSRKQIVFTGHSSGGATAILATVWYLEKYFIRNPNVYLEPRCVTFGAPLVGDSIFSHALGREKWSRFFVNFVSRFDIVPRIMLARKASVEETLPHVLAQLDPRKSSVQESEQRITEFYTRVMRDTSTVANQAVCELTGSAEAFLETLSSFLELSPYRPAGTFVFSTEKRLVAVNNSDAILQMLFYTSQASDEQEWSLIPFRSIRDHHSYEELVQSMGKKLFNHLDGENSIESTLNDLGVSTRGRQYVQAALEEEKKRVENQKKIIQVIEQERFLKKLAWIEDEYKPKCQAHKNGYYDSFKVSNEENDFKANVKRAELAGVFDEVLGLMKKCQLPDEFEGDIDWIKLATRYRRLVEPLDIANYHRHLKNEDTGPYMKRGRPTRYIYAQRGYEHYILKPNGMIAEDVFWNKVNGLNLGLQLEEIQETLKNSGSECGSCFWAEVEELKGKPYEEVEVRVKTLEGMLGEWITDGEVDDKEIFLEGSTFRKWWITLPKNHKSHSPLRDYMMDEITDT

The target of the assay is SAG101-3FLAG (in A. thaliana) (A. thaliana) (UniProt Q4F883). As to the kind of experiment: co-IP.

These are yes or no findings as the source states them, for the method shown. Binding seen in cells or lysates may run through a third protein. Binding calls can cover weak binding; strength is not graded here.

Consider “EDS1 (endogenous, A. thaliana) (from UniProt Q9SU72)”, for which the binding result was “binds”.
